Assay results as given in patent US20130197191A1 (Amgen, published 2013).
Read-outs that look alike come from different tables or passages of the source.

T1: recombinant human β-Klotho (human, UniProt Q86Z14 53-996, limits assumed, biotinylated in the AlphaScreen assays (site not stated))
T1 construct: also called rhβ-klotho; huβKlotho-His
T1 sequence: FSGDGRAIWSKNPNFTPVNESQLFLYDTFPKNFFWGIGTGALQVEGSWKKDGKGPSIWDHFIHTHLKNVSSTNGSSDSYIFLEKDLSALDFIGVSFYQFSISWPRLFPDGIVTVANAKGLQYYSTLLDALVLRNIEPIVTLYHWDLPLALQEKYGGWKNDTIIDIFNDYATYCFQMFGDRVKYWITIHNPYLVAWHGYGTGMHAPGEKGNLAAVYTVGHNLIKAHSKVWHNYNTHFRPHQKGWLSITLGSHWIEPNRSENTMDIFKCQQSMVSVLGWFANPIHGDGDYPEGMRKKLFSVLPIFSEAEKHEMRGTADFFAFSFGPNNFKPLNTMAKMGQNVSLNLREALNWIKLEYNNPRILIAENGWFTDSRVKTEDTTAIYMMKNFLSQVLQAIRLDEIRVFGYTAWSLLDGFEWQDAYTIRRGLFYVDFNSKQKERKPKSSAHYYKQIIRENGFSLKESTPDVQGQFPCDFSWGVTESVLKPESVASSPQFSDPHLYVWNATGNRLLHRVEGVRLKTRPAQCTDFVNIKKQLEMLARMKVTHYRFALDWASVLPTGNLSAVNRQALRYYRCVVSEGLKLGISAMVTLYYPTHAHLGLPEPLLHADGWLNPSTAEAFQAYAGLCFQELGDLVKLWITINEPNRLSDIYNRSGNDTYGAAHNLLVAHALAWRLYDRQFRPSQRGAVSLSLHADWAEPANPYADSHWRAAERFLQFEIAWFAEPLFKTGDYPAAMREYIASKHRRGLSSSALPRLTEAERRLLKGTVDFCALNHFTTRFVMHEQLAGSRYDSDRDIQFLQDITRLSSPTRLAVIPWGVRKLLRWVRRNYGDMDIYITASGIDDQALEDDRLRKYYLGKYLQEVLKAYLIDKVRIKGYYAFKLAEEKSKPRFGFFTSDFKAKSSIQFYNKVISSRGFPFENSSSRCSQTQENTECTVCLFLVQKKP

T2: human FGFR1c-Fc (human, UniProt P11362 22-376)
T2 construct: also called huFGFR1c-Fc; huFGFR1c/Fc
T2 sequence: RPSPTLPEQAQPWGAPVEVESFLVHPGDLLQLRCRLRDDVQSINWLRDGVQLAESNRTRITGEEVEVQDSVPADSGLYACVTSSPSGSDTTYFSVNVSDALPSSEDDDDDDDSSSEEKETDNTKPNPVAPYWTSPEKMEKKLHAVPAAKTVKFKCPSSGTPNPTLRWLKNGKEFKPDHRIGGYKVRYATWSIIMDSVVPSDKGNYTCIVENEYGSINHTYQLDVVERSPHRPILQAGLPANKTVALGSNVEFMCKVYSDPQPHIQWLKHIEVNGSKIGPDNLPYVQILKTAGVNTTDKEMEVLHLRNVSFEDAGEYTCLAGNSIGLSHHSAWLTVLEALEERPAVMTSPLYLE

B1: β-Klotho walked dimer bKWD37 (designed binder)
chain: CLSDQFQCNNYETCIPRPWLCDGDDDCVDGSDEEDCETRTCHSFNQFECRNGQCIPLHLVCDGVPDCGDNSDETDCGDSHILPFSTPGPST
B2: β-Klotho walked dimer bKWD14 (designed binder)
chain: CGPDQFRCKSGNCLPLNWVCDGVDDCGDSSDEEGCATPTCLPDEFQCGSGRCIPQTWVCDGLNDCGDGSDESPAHCSQDPEFHKV
B3: β-Klotho-binding monomer M53 (designed binder)
chain: CLPGQFRCNSGHCLSQTWVCDGYNDCGDGSDEPLATCGDSHILPFSTPGPST
B4: β-Klotho walked dimer bKWD17 (designed binder)
chain: CPPSQFTCGNGRCVSLGWVCDGLNDCGDGSDESPALCSAPASEPPGSLCPPDQFRCRNGRCVPLAWVCDGEDDCQDNSDETDCKRSVRT
B5: β-Klotho walked dimer bKWD23 (designed binder)
chain: CGPSQFQCSNGRCLPATWVCDGDDDCLDGSDEASATCATRTCPSNQFPCRSTGICIPLAWVCDGLNDCGDGSDESPAHCSQDPGFHKV
B6: β-Klotho walked dimer BK_R1c_D19 (designed binder)
chain: CPPSQFTCGNGRCVSLGWVCDGLNDCGDGSDESPALCSAPASEPPGSLCAPGEFTCKSGQCIPLHWLCDGDNDCGDNSDESPATCKATVPT
B7: β-Klotho walked dimer bKWD13 (designed binder)
chain: CGPDEFRCNSGRCLPLDWRCDGVDDCEDGSDEAPDLCKTPARTCLPDEFQCGSGRCIPQTWVCDGLNDCGDGSDESPAHCSQDPEFHKV
B8: β-Klotho walked dimer BK_R1c_D20 (designed binder)
chain: CPPSQFTCGNGRCVSLGWVCDGLNDCGDGSDESPALCSAPASEPPGSLCPPGQFRCNNGRCIPQPWLCDGDDDCQDNSDEENCESPGPT

Assays:
Assay in all cases: phage panning
[1] = biological target: T1, recombinant human β-Klotho
human FGFR1c-Fc = biological target: T2, human FGFR1c-Fc
[2] = biological target: T1, recombinant human β-Klotho; remark: listed apart in the source
[3] = biological target: T1, recombinant human β-Klotho; remark: listed apart in the source
[4] = biological target: T1, recombinant human β-Klotho; remark: listed apart in the source
[5] = biological target: T1, recombinant human β-Klotho; remark: listed apart in the source

Row | Binder | binding result (human FGFR1c-Fc) | binding result [2] | other results
1 | B1 | – | – | binding result [1]: binds
2 | CGPSQFTCRNTNICISLRWRCDGVDDCEDNSDEEGCGTTGPT (designed binder) [FGFR1c-binding monomer M21] | binds | – | –
3 | CHHHHFHCLSGECINTWRCDGGPDCKDKSDEENCPTKRPEEV (designed binder) [β-Klotho-binding monomer M30] | – | binds | –
4 | CASGQFTCRSTNICLSLAWLCDGDDDCEDNSDESPAICSAPASEPPGSL (designed binder) [FGFR1c-binding monomer M02] | binds | – | –
5 | B2 | – | – | binding result [3]: binds
6 | CSAFEFHCLSGECIHSSWRCDWDDDCKDWQDYVMCALEA (designed binder) [β-Klotho-binding monomer M38] | – | binds | –
7 | CRPGEFRCRSTNTCISQSLRCDGEPDCRDGSDEPEDCESVAHT (designed binder) [β-Klotho-binding monomer M16] | – | binds | –
8 | B3 | – | binds | –
9 | B4 | – | – | binding result [4]: binds
10 | B5 | – | – | binding result [5]: binds
11 | CGSNQFTCRSTNICISQAWVCDGVDDCEDDSDETGCSQDPEFHKV (designed binder, also called M23ori; R1cM23) [FGFR1c-binding monomer M23] | binds | binds | –
12 | CSAFEFHCLSGECIHSSWRCDWYWDCKDYWDPLVCELEA (designed binder) [β-Klotho-binding monomer M40] | – | binds | –
13 | CGPIQFTCRNTNICLSVHWVCDGEDDCEDGSDEEGCGRPGPGATSAPAA (designed binder) [FGFR1c-binding monomer M19] | binds | – | –
14 | B6 | – | – | binding result [4]: binds
15 | B7 | – | – | binding result [3]: binds
16 | B8 | – | – | binding result [4]: binds
17 | CGAGQFQCRSTNICISLKWVCDGVDDCEDNSDETSCSAPASEPPGSL (designed binder) [FGFR1c-binding monomer M05] | binds | – | –
18 | CGAGQFTCRSTKICISQAWVCDGVDDCEDNSDETSCSAPASEPPGSL (designed binder) [FGFR1c-binding monomer M11] | binds | – | –
19 | CGTGQFTCRSTKICISQAWVCDGVDDCEDNSDEKNCSAPASEPPGSL (designed binder) [FGFR1c-binding monomer M30] | binds | – | –
